Test results from paper PMC11726933.
No constants are given. Whether binding was seen depends on the method and setting. Binding seen in cells or lysates may run through a third protein. Some binding calls cover weakened binding; strength is not graded here.

Molecular target: T1, YTHDF2 (human (endogenous in HeLa and MDA-MB-231)) (UniProt Q9Y5A9)
T1 sequence: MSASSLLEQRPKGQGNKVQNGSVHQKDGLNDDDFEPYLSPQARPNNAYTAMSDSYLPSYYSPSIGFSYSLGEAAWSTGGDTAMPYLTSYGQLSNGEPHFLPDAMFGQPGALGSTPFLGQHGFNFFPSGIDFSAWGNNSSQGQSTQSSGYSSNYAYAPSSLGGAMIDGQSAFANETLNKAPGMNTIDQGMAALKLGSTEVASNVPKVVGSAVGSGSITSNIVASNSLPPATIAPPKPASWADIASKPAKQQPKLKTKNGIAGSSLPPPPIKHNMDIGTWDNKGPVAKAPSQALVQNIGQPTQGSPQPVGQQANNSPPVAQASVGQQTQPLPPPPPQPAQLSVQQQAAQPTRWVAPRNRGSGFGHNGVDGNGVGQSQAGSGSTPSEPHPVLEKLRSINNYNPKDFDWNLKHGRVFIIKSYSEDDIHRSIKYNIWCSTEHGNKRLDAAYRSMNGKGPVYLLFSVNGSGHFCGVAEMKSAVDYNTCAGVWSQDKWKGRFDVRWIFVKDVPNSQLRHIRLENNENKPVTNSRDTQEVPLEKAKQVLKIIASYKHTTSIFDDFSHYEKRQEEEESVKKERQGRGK
Test: co-IP; protein lysates of HeLa and MDA-MB-231 cells immunoprecipitated with YTHDF2 antibodies; Dis3L2 checked in the precipitate

B1: 3′-5′ exoribonuclease Dis3L2 (enzyme, UniProt Q8IYB7 1-885)
chain: MSHPDYRMNLRPLGTPRGVSAVAGPHDIGASPGDKKSKNRSTRGKKKSIFETYMSKEDVSEGLKRGTLIQGVLRINPKKFHEAFIPSPDGDRDIFIDGVVARNRALNGDLVVVKLLPEEHWKVVKPESNDKETEAAYESDIPEELCGHHLPQQSLKSYNDSPDVIVEAQFDGSDSEDGHGITQNVLVDGVKKLSVCVSEKGREDGDAPVTKDETTCISQDTRALSEKSLQRSAKVVYILEKKHSRAATGFLKLLADKNSELFRKYALFSPSDHRVPRIYVPLKDCPQDFVARPKDYANTLFICRIVDWKEDCNFALGQLAKSLGQAGEIEPETEGILTEYGVDFSDFSSEVLECLPQGLPWTIPPEEFSKRRDLRKDCIFTIDPSTARDLDDALSCKPLADGNFKVGVHIADVSYFVPEGSDLDKVAAERATSVYLVQKVVPMLPRLLCEELCSLNPMSDKLTFSVIWTLTPEGKILDEWFGRTIIRSCTKLSYEHAQSMIESPTEKIPAKELPPISPEHSSEEVHQAVLNLHGIAKQLRQQRFVDGALRLDQLKLAFTLDHETGLPQGCHIYEYRESNKLVEEFMLLANMAVAHKIHRAFPEQALLRRHPPPQTRMLSDLVEFCDQMGLPVDFSSAGALNKSLTQTFGDDKYSLARKEVLTNMCSRPMQMALYFCSGLLQDPAQFRHYALNVPLYTHFTSPIRRFADVLVHRLLAAALGYRERLDMAPDTLQKQADHCNDRRMASKRVQELSTSLFFAVLVKESGPLESEAMVMGILKQAFDVLVLRYGVQKRIYCNALALRSHHFQKVGKKPELTLVWEPEDMEQEPAQQVITIFSLVEVVLQAESTALKYSAILKRPGTQGHLGPEKEEEESDGEPEDSSTS
binding: binds
